# Source: PubChem BioAssay AID743397 (Broad Institute, 2014)
# Among all 340,000 compounds or so, about 330 (0.097%) were called active. This list was built around the results that the source calls inconclusive (neither active nor inactive); the mix of calls is not that of the screen.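 How the source made its calls: active means mean replicate inhibition of at least 30% and at least 1% of replicates passing that level; inconclusive means only one of the two criteria is met; inactive means neither criterion is met.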
# System: Voltage-dependent L-type calcium channel subunit alpha-1D (CaV1.3) ICDI/IQ interaction
# Test: Disruptors of the CACNA1D IQ motif to Ca2+-dependent inactivation inhibitor domain association, primary screening, Förster resonance energy transfer in intact living cells, one concentration (AID 743397);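 further: 0% = median of the neutral control wells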
# Settings: HEK cells, CFP/YFP FRET ICDI-IQ, plate reader, 10 min; at 12.3 µM; hits give high values; percent FRET-ratio fall versus neutral wells
row,Structure (SMILES),inhibition
1,Cc1cc2cc(C#N)c(NCCNC(=S)NCCCN3CCOCC3)nc2cc1C,inconclusive: 34%
2,C[C@@H]1ON(C)[C@H]2C[C@H]3c4[nH]c5cccc(Br)c5c4CCN3C(=O)[C@@H]12,inactive: -3.07%
3,CC(C)N1CCN(Cc2ccc(C#CC(C)(C)O)cc2)CC1CCO (stereo not given),inconclusive: 36.5%
4,CCC(Cc1ccccc1)NC(=O)CN1C(=O)CSc2ncccc21 (stereo not given),inconclusive: 37.9%
5,CCOc1ccc(Cl)cc1-c1cc(C(=O)NCCOC)[nH]n1,inactive: -4.94%
6,O=C(O)c1[nH]c2ccccc2c1C(c1cc(Br)ccc1O)c1c(C(=O)O)[nH]c2ccccc12,active: 144%
7,O=C(NNS(=O)(=O)c1ccc(F)cc1)c1ccc(O)cc1,inactive: -1.92%
8,CCCOc1ccc(-c2c(=O)n(O)c3ccccc3[n+]2[O-])cc1,inactive: -5.36%
9,Cc1ccc(N(C(=O)c2ccc(Br)o2)C2C=CS(=O)(=O)C2)cc1 (stereo not given),inconclusive: 37.8%
10,COc1ccc(NC(=O)CN(c2ccc(C(C)C)cc2)S(=O)(=O)c2c(C)noc2C)cc1OC,inconclusive: 31.3%
11,Cc1c(Nc2c3ccccc3nc3ccccc23)c(=O)n(-c2ccccc2)n1C,active: 165%
12,Cc1ccc(C)c2sc(NC(=O)C3CC3)nc12,inconclusive: 30.1%
13,Cc1sc2ncnc(N3CCC(C(=O)NNC(=O)COc4ccc(Cl)cc4)CC3)c2c1C,inactive: -3.14%
14,Cc1ccc2c(c1)N(C(=O)CCC(=O)NCCCN1CCOCC1)CCO2,inconclusive: 31%
15,Nc1nc(Br)c2ccccc2c1-c1ccccc1,inconclusive: 38.7%
16,COc1ccc(N(CC(=O)Nc2cccc(C)c2)S(=O)(=O)c2ccc(C)cc2)cc1OC,inconclusive: 36.5%
17,CC(C)C1COC(c2cccn2Cc2ccccc2Cl)=N1 (stereo not given),inconclusive: 32.2%
18,CCOc1ccc(NC(=O)C2CCN(C(=O)N3CCOc4ccccc43)CC2)cc1,inconclusive: 32%
19,O=C(/C=C/c1cccc(Br)c1)NCc1ccncc1,inactive: -1.96%
20,Cc1cccc(C(=O)Nc2cccc3cccnc23)c1,inconclusive: 36.6%
21,O=C(OCc1nc2scc(-c3ccccc3)c2c(=O)[nH]1)c1cc(Cl)ccc1[N+](=O)[O-],inactive: -5.71%
22,Cc1cc(C)cc(OCC(=O)Nc2cc(NC(=O)COc3cc(C)cc(C)c3)cc(C(=O)O)c2)c1,inconclusive: 31.2%
23,CCOc1ccc(CNC(=O)C2CCN(C(=O)N3CC(C)Oc4ccccc43)CC2)cc1 (stereo not given),inconclusive: 39.1%

row,Structure (SMILES),inhibition
1,O=C(c1ccco1)N1CCN=C1SCc1cccc(Cl)c1,inconclusive: 33.2%
2,C=CCn1c2ccccc2c(=O)c2cc(C#CC[C@@H](C)O)ccc21,inconclusive: 30.6%
3,O=C(Cn1ccc([N+](=O)[O-])n1)N1CCCCCC1,active: 115%
4,Cc1cc(OC(=O)c2ccccc2Cl)ccc1N1C(=O)CCC1=O,active: 66.2%
5,O=C1CCc2cc(S(=O)(=O)NC(Cc3ccccc3)C(=O)NCCC3=CCCCC3)ccc2N1 (stereo not given),active: 65.7%
6,NC(=O)C1CC2(C1)CC(C(N)=O)C2 (stereo not given),inactive: -9.26%
7,O=[N+]([O-])c1ccc(Nc2ccc(Cl)cc2)nc1,inactive: -5.68%
8,CC(C)(C)C(=O)Nc1nc2c(s1)CN(Cc1ccccc1)CC2,inconclusive: 69.1%
9,CCN(CC)c1ccc(/C=C(/C#N)C(=O)NC(C)C)o1,inconclusive: 32.6%
10,O=C(NC(=O)N1CCSCC1)c1c(Cl)cccc1Cl,inconclusive: 31.3%
11,O=c1cc(CO)[nH]nc1CO,inactive: -5.47%
12,O=C(CCCCC(=O)NCCCc1ccccc1)NCCCc1ccccc1,inconclusive: 33.1%
13,COc1ccc(NC(=O)CN(C)S(=O)(=O)c2cccc3cccnc23)cc1,inconclusive: 51.4%
14,O=C(Cc1csc(-c2ccccc2)n1)NCc1ccccc1F,active: 38.1%
15,O=C(CCc1c[nH]c2ccccc12)OCC(=O)c1ccccc1,active: 36.3%
16,O=C(O)c1ccccc1NC(=O)c1cc2ccccc2oc1=O,inconclusive: 37.9%
17,Nc1ccc2sc(N)nc2c1,inconclusive: 38.8%
18,COc1ccc(NC2CCCN(C(=O)c3ccc(CSC)o3)C2)cc1OC (stereo not given),inactive: -2.26%
19,CC(C(=O)N1CCCC1)N1CCN(S(=O)(=O)c2ccccc2)CC1 (stereo not given),inactive: -2.76%
20,Cc1ccc(S(=O)(=O)CCC(=O)OCC(=O)Nc2cccc(S(=O)(=O)N3CCCCC3)c2)cc1,active: 57.8%
21,COc1ccc(-c2nnn(CC(=O)N(CC(=O)NC3CCCC3)c3ccccc3F)n2)cc1OC,inactive: -1.88%
22,CCN1C(=O)/C(=C/C=C2/CCCN2C)OC1=S,inconclusive: 30.7%
23,COc1ccc(S(=O)(=O)n2nc(C)cc2C)cc1OC,inconclusive: 31.2%

# Part of the list above, with bars between the fields.
row | Structure (SMILES) | inhibition
2 | C[C@@H]1ON(C)[C@H]2C[C@H]3c4[nH]c5cccc(Br)c5c4CCN3C(=O)[C@@H]12 | inactive: -3.07%
3 | CC(C)N1CCN(Cc2ccc(C#CC(C)(C)O)cc2)CC1CCO (stereo not given) | inconclusive: 36.5%
4 | CCC(Cc1ccccc1)NC(=O)CN1C(=O)CSc2ncccc21 (stereo not given) | inconclusive: 37.9%
5 | CCOc1ccc(Cl)cc1-c1cc(C(=O)NCCOC)[nH]n1 | inactive: -4.94%
6 | O=C(O)c1[nH]c2ccccc2c1C(c1cc(Br)ccc1O)c1c(C(=O)O)[nH]c2ccccc12 | active: 144%
7 | O=C(NNS(=O)(=O)c1ccc(F)cc1)c1ccc(O)cc1 | inactive: -1.92%

# Remaining list, next part:

row,Structure (SMILES),inhibition
1,CN(CCOCCOc1ccc(F)cc1)Cc1ccccc1,inconclusive: 40.3%
2,COCCNC(=O)c1cc2c(-c3ccc(Cl)cc3)nn(C)c2s1,inconclusive: 31.8%
3,CCC(C)C(=O)Nc1nc(C)c(-c2csc(Nc3cc(Cl)ccc3OC)n2)s1 (stereo not given),inconclusive: 30.7%
4,Cc1ccc2c(c1)N(C(=O)CCC(=O)N1CCN(c3ccccn3)CC1)CCO2,inconclusive: 34.1%
5,CCC(C)n1c(=N)c(C#N)cc2c(=O)n3cc(C)ccc3nc21 (stereo not given),active: 57.1%
6,COc1ccccc1S(=O)(=O)Cc1ccc(C(=O)N2CCOCC2)o1,inconclusive: 32.3%
7,Cc1c(C(=O)NCc2ccc(Cl)c(Cl)c2)sc(=O)n1Cc1ccc(S(C)(=O)=O)cc1,inconclusive: 32.9%
8,CCC(C)NC(=O)CCS(=O)(=O)c1ccc2c(c1)n(C)c(=O)c(=O)n2C (stereo not given),inconclusive: 37.5%
9,O=C(/C=C/c1ccco1)NC(=S)Nc1ccccn1,inactive: -3.22%
10,COc1cc(CNn2cn[nH]c2=S)cc(Cl)c1OCc1ccc(F)cc1,inactive: -5.41%
11,CCCC(CCC)c1nnc(NC(=O)c2ccco2)s1,inconclusive: 31.6%
12,Cc1ccc(S(=O)(=O)OCC(=O)Nc2ccc(C(=O)O)c(O)c2)cc1,inactive: -2.94%
13,CC1=Nc2ccc(C)cc2/C1=C/c1c(N)n2oc(C)cc2nc1=O,inconclusive: 51.2%
14,O=S(=O)(Cc1ccc(Cl)cc1)NCc1cccnc1,inactive: -4.18%
15,O=c1[nH]c2cc3c(cc2cc1CN(Cc1nnnn1CC1CCCO1)C1CCCCC1)OCO3 (stereo not given),inactive: -7.43%
16,O=C(CC1Oc2ccccc2NC1=O)NCCCN1CCN(C2CCCCC2)CC1 (stereo not given),inconclusive: 30.5%
17,O=C(CCn1c(=O)oc2ccccc21)NCc1ccco1,inconclusive: 38.2%
18,CCCn1c(SCC(=O)Nc2cccc(S(=O)(=O)N(C)C)c2)nc2ccccc2c1=O,inactive: -2.18%
19,CCC(=O)c1cn(CCOc2ccccc2OC)c2ccccc12,inconclusive: 33.2%
20,COc1ccc(-c2sc3ccccc3c2-c2ccc(OCCN(C)C)cc2)cc1,inconclusive: 44.9%
21,CC(=O)Oc1ccc(Cn2c(C)c(C(=O)NCc3cccc(C(F)(F)F)c3)sc2=O)cc1,inconclusive: 36.6%
22,Nc1c(C(=O)NCc2ccco2)c2nc3ccccc3nc2n1CCc1ccccc1,inconclusive: 38%
23,COc1ccc(C(C)=O)cc1Cn1c(C)c(C(=O)NCc2cccc(Cl)c2)sc1=O,inconclusive: 31.8%

row,Structure (SMILES),inhibition
1,O=C(C[n+]1ccccc1)N/N=C/c1ccc(O)cc1,inconclusive: 111%
2,CCOC(=O)CCn1c(=S)n(CCC(=O)OCC)c2ccccc21,inactive: -4.31%
3,O=C(O)c1ccccc1C(=O)c1cccc2c(Br)cccc12,inactive: -5.48%
4,CCC(C)Sc1cccc(-c2nc3ccc(C)cn3c2NCc2ccccc2)c1 (stereo not given),inconclusive: 31.3%
5,CSc1ccc(CN2C(=O)C(C)ON=C2c2ccccc2F)cc1 (stereo not given),inconclusive: 39%
6,Cc1ccc(-n2nnnc2CNC(=O)C(=O)c2c[nH]c3ccccc23)cc1C,active: 49%
7,COc1cc(C(=O)Nc2ccc(Nc3ccccc3)cc2)cc(OC)c1OC,inconclusive: 39.4%
8,O=C(NCCCN1CCCC1)Nc1ccc(F)cc1,inactive: -4.06%
9,O=C(N/N=C/c1ccc(F)cc1)c1cc(-c2ccco2)nc2ccccc12,inactive: -6.66%
10,CC(=O)N1c2ccc(S(=O)(=O)N3CCCC(C(=O)Nc4cccc(F)c4)C3)cc2CC1C (stereo not given),inconclusive: 43.6%
11,COc1cc(-n2nnnc2SC)c(OC)cc1Cl,inconclusive: 41.8%
12,COc1cc(NC(=O)c2cc(S(=O)(=O)N3CCCCC3)ccc2N2CCOCC2)cc(OC)c1,inactive: -5.22%
13,CCOc1ccc(OCC)c(NC(=O)C2CCCN2S(=O)(=O)c2cccc3cccnc23)c1 (stereo not given),inconclusive: 34.1%
14,Cc1ccccc1Cn1c(C)c(C(=O)N(C)Cc2ccc(F)cc2)sc1=O,inconclusive: 30%
15,NC1=NC[C@@H](Cc2ccc(O)cc2)N1CCCCC1CCCCC1,inconclusive: 36.4%
16,COc1cc(CN2C(=O)C(C)ON=C2c2ccccc2F)cc(OC)c1 (stereo not given),inconclusive: 35.2%
17,COc1ccc2c(c1)OC[C@H]1[C@H]2N2C(=O)CN(Cc3ccccc3)C(=O)[C@@]2(C)[C@H]1c1ccccc1,inactive: -9.83%
18,NC(N)=N/N=C(\N=Nc1ccccc1)c1cccc2cccnc12,inactive: -4.48%
19,Cc1ccc(-c2cc(C(=O)NCC3CCCO3)c3ccccc3n2)cc1C (stereo not given),inactive: -2.43%
20,COc1cccc(-c2nc(CS(=O)(=O)CC(=O)NC3CCCc4ccccc43)c(C)o2)c1 (stereo not given),inconclusive: 30.2%
21,CCCCN(Cc1ccccc1)C(=O)C1CCCN(S(=O)(=O)c2cnc[nH]2)C1 (stereo not given),inconclusive: 35.6%
